The chains are these.
B1: VHH1 (VHH)
VHH: EVQLVESGGGLVQPGGSLRLSCAASGFTFSSYAMGWVRQAPGKGREFVSAISGNGGSTYYADSVKGRFTISRDNSKNTLYLQMNSLRAEDTAVYYCAAGYSYLYPGGLSTRPSFYDYWGQGTQVTVSS
B2: VHH6 (VHH)
VHH: EVQLVESGGGLVQPGGSLRLSCAASGFTFSSYAMGWVRQAPGKGREFVSAISGSGGSTYYADSVKGRFTISRDNSKNTLYLQMNSLRAEDTAVYYCAAGYSYLYPGGLSTRPSFYDYWGQGTQVTVSS
B3: VHH15 (VHH)
VHH: EVQLVESGGGLVQPGGSLRLSCAASGFTFSSYAMGWVRQAPGKGREFVSAISGYGGSTYYADSVKGRFTISRDNSKNTLYLQMNSLRAEDTAVYYCAAGSGLYSSYGVSTDPSFYDYWGQGTQVTVSS
B4: VHH13 (VHH)
VHH: EVQLVESGGGLVQPGGSLRLSCAASGFTFSSYAMGWVRQAPGKGREFVSAISGYGGTTYYADSVKGRFTISRDNSKNTLYLQMNSLRAEDTAVYYCAAGTGYYSRVGVSTDPSFYDYWGQGTQVTVSS
B5: VHH16 (VHH)
VHH: EVQLVESGGGLVQPGGSLRLSCAASGFTFSSYAMGWVRQAPGKGREFVSAISGSGGTTYYADSVKGRFTISRDNSKNTLYLQMNSLRAEDTAVYYCAAGTGYYSRVGVSTDPSFYDYWGQGTQVTVSS
B6: VHH8 (VHH)
VHH: EVQLVESGGGLVQPGGSLRLSCAASGFTFSSYAMGWVRQAPGKGREFVSAISGNGGSTFYADSVKGRFTISRDNSKNTLYLQMNSLRAEDTAVYYCAAGYSYLYPGGLSTRPSFYDYWGQGTQVTVSS
B7: VHH15-1 (VHH)
VHH: EVQLVESGGGLVQPGGSLRLSCAASGFTFSSYAMGWVRQAPGKGREFVSAISGNGGSTYYADSVKGRFTISRDNSKNTLYLQMNSLRAEDTAVYYCAAGYSYLSPGGVSTRPSFYDYWGQGTQVTVSS
B8: VHH2 (VHH)
VHH: EVQLVESGGGLVQPGGSLRLSCAASGFTFSSYAMGWVRQAPGKGREFVSAISGNGGSTYYADSVKGRFTISRDNSKNTLYLQMNSLRAEDTAVYYCAAGDAYVYPYGVSTDPSFYDYWGQGTQVTVSS

Protein sequences, listed by entry. Tags and fused reporters are not part of them. Residues count along the entry.
UniProt Q07011, residues 24-186: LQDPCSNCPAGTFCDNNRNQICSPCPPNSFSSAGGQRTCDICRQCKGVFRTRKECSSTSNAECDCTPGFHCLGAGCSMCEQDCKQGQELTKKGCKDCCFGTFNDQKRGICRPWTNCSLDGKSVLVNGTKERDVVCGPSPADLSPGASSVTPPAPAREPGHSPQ

No constants are given. Whether binding was seen depends on the method and setting. Some binding calls cover weakened binding; strength is not graded here.

This assay deals with human 4-1BB antigen (human) (UniProt Q07011). The assay can be described thus: ELISA screen of phage display clones. Background: In an ELISA, binding on a coated surface is turned into a signal by an enzyme label.
On to B1, for which the binding result is “binds”. In the case of B2, the binding result is “binds”. For the molecule B3, the binding entry was “binds”. Next, B4: “binds”.

As to B5, the binding result is “binds”.

Take B6: the binding entry was “binds”. Regarding B7, the binding entry is “binds”.

Take B8: the binding entry is given as “binds”.

Values taken from patent EP4737479A1.
